Results published in patent US20130261136A1, “COFFEE EXTRACTS AS INGREDIENTS OF FOODS, DRUGS, COSMETICS, DIETARY SUPPLEMENTS, AND BIOLOGICS” (priority 2010, published 2013).
Entries after “also recorded” stand apart in the source; their conditions may differ. At least one compound was matched to its structure with a doubt left.

Key:
human adipocytes = assay: Glucose uptake (3H-2-deoxyglucose) in adipocytes; type: cell-based; conditions: 0.01 mg/mL
Protocol: Glucose uptake. […] Briefly, primary human subcutaneous adipocytes or primary human myoblasts were differentiated in 96-well microplates. […] All samples, including the positive and negative controls, were tested in triplicate. After a 2-h incubation at 37° C. and 5% CO2, the cells were washed with PBS and lysed. The cell lysate was mixed with scintillation fluid and radioactivity of each well was measured as counts per minute (CPM).

[1] = Hydrophilic oxygen radical absorbance capacity (ORAChydro); conditions: hydrophilic fraction, acetone/water (50:50 v/v) extract; TE, trolox equivalent

## Cn1c(=O)c2c(ncn2C)n(C)c1=O [Caffeine, 1.3.7 trimethylaxanthine]
Human adipocytes; listed as Pure caffeine
  Increase in glucose uptake: did not exert a significant effect; also recorded: did not stimulate glucose uptake
Human adipocytes; listed as pure caffeine
  Increase in glucose uptake: does not exert a significant effect
[1]
  ORAChydro: 6 μmol TE/g
